The results in this text go back to the odorant receptor screen of Mainland et al. (2015).

Common to all, as to assay: odorant receptor activation (CRE luciferase / Renilla) (fold of no-odor wells); higher = more activation
Common to all, as to conditions: 100 µM

Assay [1] has as its system OR2T5 clone 1495.
Assay [2] relates to OR2T5 clone 1496.
For assay [3], the system named is OR2T6 N21D/C23G/S243A clone 1432.
Assay [4] deals with OR2T8 clone 1576.
Assay [5] relates to OR2V1 clone 1718.
Assay [6] deals with OR2W1 D296N clone 1536.
The subject of assay [7] is OR2W1 clone 1067.
The subject of assay [8] is OR2W3 Indel clone 1491.
The test system of assay [9] is OR2W5 clone 1506.
Assay [10] concerns OR2Y1 V200L clone 1069.
The test system of assay [11] is OR2Z1 clone 1296.
The test system of assay [12] is OR3A1 clone 1288.
Assay [13] deals with OR3A2 clone 1286.
Assay [14] relates to OR3A3 clone 1549.
Assay [15] has as its system OR3A4 I42V/S86R/E103Q/I120V/P168T/N175S clone 1550.
Assay [16] concerns OR4A15 A257V clone 1216.
Assay [17] relates to OR4A16 clone 1518.
The subject of assay [18] is OR4A4 clone 1134.
The test system of assay [19] is OR4A47 I104L/V145M clone 1579.
The subject of assay [20] is OR4A5 clone 1637.

“And” between values parts separate entries of the source, which are not always exact repeats. Identical values can stand only once. This is one part of the list. Each value is one well over the wells without odorant, computed here; the data are noisy.

For the compound `CC12CCC(CC1)C(C)(C)O2` [cineole], the odorant receptor activation in [1] came to 0.979; in assay [2] it was 0.893; in assay [3], 0.144; in assay [4], 0.981; in [5], 0.844; in assay [6], 0.885. Also, the odorant receptor activation in assay [7] is 1.09 and 0.829; in assay [8], 1; in [9], 0.885; in assay [10] it was 0.95; in assay [11] it was 0.898; in [12], 0.735. In addition, the odorant receptor activation was determined as 0.795 in assay [13]; 0.891 in assay [14]; 1.08 in assay [15]; 0.857 in assay [16]; 0.773 in assay [17]; 0.888 in assay [18]. The values for the odorant receptor activation in assay [19] and in assay [20] were 1.09 and 0.885, respectively.
On to `C=CCc1ccc(OC(C)=O)c(OC)c1` [eugenol acetate], for which the odorant receptor activation in [1] is 1.71; in [2], 1.62; in assay [3], 1.45; in assay [4], 2.61; in assay [5], 2.18; in assay [6], 1.51. Also, the odorant receptor activation is 1.15 and 1.51 in assay [7]; 1.39 in assay [8]; 1.52 in [9]; 1.64 in [10]; 1.29 in assay [11]; 1.68 in assay [12]. Besides, the odorant receptor activation is 1.36 in assay [13]; 1.7 in assay [14]; 1.91 in assay [15]; 1.82 in assay [16]; 1.72 in [17]; 2.63 in assay [18]. The odorant receptor activation in assay [19] was 1.82; in assay [20] it was 1.78.
Take `CC(=O)OC(C)(C)C1CC=C(C)CC1` (stereo not given) [terpinyl acetate]: the odorant receptor activation is 1.04 in assay [1]; 1.25 in [2]; 0.832 in assay [3]; 0.961 in assay [4]; 1.11 in [5]; 1.17 in assay [6]. In addition, the odorant receptor activation in assay [7] is 1.63 and 2.57; in [8] it was 0.78; in assay [9], 0.896; in [10] it was 1.18; in assay [11], 0.809; in assay [12], 0.792. Besides, the odorant receptor activation in assay [13] was 0.699; in [14], 0.731; in assay [15], 0.805; in assay [16], 1.24; in assay [17], 0.828; in [18], 1.39. In addition, the odorant receptor activation is 0.681 in assay [19] and 0.576 in assay [20].
Take `CC(=O)C(C)=O` [diacetyl]: the odorant receptor activation in assay [1] was 1.09; in assay [2], 1.16; in assay [3], 1.22; in assay [4], 0.779; in assay [5], 0.765; in assay [6], 1.27. Besides, the odorant receptor activation is 1.41 and 1.06 in assay [7]; 1.1 in [8]; 1.15 in [9]; 1.06 in assay [10]; 0.953 in [11]; 1.11 in [12]. For the same compound, the odorant receptor activation in assay [13] is 0.883; in assay [14] it was 0.928; in assay [15] it was 0.815; in assay [16] it was 1.37; in [17], 1.2; in assay [18] it was 1.2. The odorant receptor activation in assay [19] was 0.714; in [20], 0.872.
Regarding `CC1CCC(C(C)C)C(O)C1` (single isomer, unassigned; (+)) [(+)-menthol], the odorant receptor activation was 0.956 in assay [1]; 1.17 in assay [2]; 1.08 in assay [3]; 0.617 in [4]; 0.884 in [5]; 2.04 in [6]. Moreover, the odorant receptor activation was 3.96 and 2.3 in assay [7]; 1.04 in [8]; 1.12 in assay [9]; 3.19 in [10]; 0.831 in [11]; 0.621 in [12]. In addition, the odorant receptor activation in [13] amounted to 0.801; in [14], 0.794; in assay [15], 0.924; in assay [16], 1.02; in assay [17], 1.1; in [18] it was 1.12. The results for the odorant receptor activation in assay [19] and in assay [20] were 1.07 and 1.11, respectively.
As to `CC1CCC(C(C)C)C(O)C1` (single isomer, unassigned; (-)) [(-)-menthol], the odorant receptor activation is 2.35 in [1]; 2.75 in [2]; 1.17 in assay [3]; 0.643 in assay [4]; 0.931 in [5]; 1.28 in assay [6]. The odorant receptor activation was 3.26 and 2.31 in [7]; 2.5 in [8]; 1.31 in assay [9]; 2.92 in assay [10]; 0.587 in [11]; 0.542 in assay [12]. Also, the odorant receptor activation is 0.821 in [13]; 0.873 in [14]; 0.729 in [15]; 1.17 in assay [16]; 3.9 in assay [17]; 1.68 in assay [18]. Besides, the odorant receptor activation was determined as 1.02 in assay [19] and 1.25 in assay [20].
For the compound `CC/C=C\CCO` [cis-3-hexen-1-ol], the odorant receptor activation in assay [1] turned out to be 0.959; in assay [2], 1.04; in assay [3] it was 0.173; in [4], 1.11; in assay [5], 1.16; in [6], 1.49. Also, the odorant receptor activation is 1.16 and 1.57 in assay [7]; 0.865 in assay [8]; 1.07 in assay [9]; 1.25 in [10]; 0.911 in [11]; 0.994 in assay [12]. Further, the odorant receptor activation was determined as 0.88 in [13]; 1.03 in [14]; 1.1 in assay [15]; 0.959 in assay [16]; 0.974 in assay [17]; 0.891 in [18]. In addition, the odorant receptor activation in assay [19] turned out to be 0.964; in [20], 1.07.
